# Reference: patent publication US20260078118A1, “COMBINED PRODUCT, SALT AND USE THEREOF” (SHANGHAI HENLIUS BIOTECH, INC., priority 2023, published 2026)
# Some entries share one result that the patent states for a list of compounds.
# System: HepG2 cells
# Test: Protection of hepatocytes from deoxycholic acid (DCA)-induced cell damage, CCK8 viability
# Format: cell-based
# Conditions: Example 6, FIG. 3; compound Y 100 μM, Y+N 100 μM+50 μM (2:1) for 24 h, then 1 mM DCA 4 h
# Procedure: First, 2.5×10^4 HepG2 cells were seeded in a 96-well flat-bottom plate with an MEM medium containing 10% fetal bovine serum. The cells were cultured overnight in an incubator at 37° C. with 5% CO2 for adhesion. Subsequently, various compounds at corresponding concentrations (compound Y: 100 μM; compound B: 100 μM; compound N: 50 μM) were incubated with the HepG2 cells in the incubator at 37° C. with 5% CO2 for 24 h. All groups, except for the blank control group, were treated with 1 mM deoxycholic acid (DCA, a secondary bile acid that can directly induce hepatocyte damage) for 4 h. All groups were supplemented with 10 μL of CCK8 reagent and incubated under the incubator conditions for 1 h. The absorbance was measured at a wavelength of 450 nm using a microplate reader, which indirectly reflected the number of viable cells. All data were calculated and presented as percentages relative to the absorbance measured in the blank control group not treated with deoxycholic acid.
# First, 2.5×10^4 HepG2 cells were seeded in a 96-well flat-bottom plate with an MEM medium containing 10% fetal bovine serum. […] Then, the absorbance was measured at a wavelength of 450 nm using a microplate reader, which indirectly reflected the number of viable cells. All data were calculated and presented as percentages relative to the absorbance measured in the blank control group not treated with deoxycholic acid. […]
smiles,measurement,value
COc1cc2cc3[n+](cc2cc1OC)CCc1cc2c(cc1-3)OCO2 [Compound Y],cell viability (percentage relative to blank control),above 80%
